PubChem BioAssay (NCATS)
The inconclusive results got no clear call from the source; some entries with a clear call stand among them for comparison. Potencies of inconclusive entries are doubtful fits and often do not repeat. Calls of active or inactive are those of the source. The call rests on the fitted dose curve; in most records, active means well fitted curve in the direction sought with a large enough effect; inconclusive means small, poorly fitted or top-dose-only effect, or another doubt; inactive means no such curve, though single readings can be large; an effect the other way counts as inactive or inconclusive.

What was measured:
[1] = Quantitative highthroughput screen to assess conditional lethalithy of NOMO1 cells grown in RPMI1640 with untreated serum (RPMI+s) (AID 1963876); conditions: NOMO1 AML cells in RPMI+serum, CellTiter-Glo viability, 48 h; viability: at 45.8 µM (top of the series); further: nearly all actives have a fitted effect of over 35% in size
In short: (§1)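 Each medium arm—HPLM with 10% dialyzed FBS, or RPMI1640 with 5 mM glucose and 10% untreated or dialyzed FBS—was screened against an 11-point, 3-fold compound titration for 48 h at 37 °C, with CellTiter-Glo luminescence as endpoint.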

[2] = Quantitative highthroughput screen to assess conditional lethalithy of NOMO1 cells grown in RPMI1640 with dialyzed fetal bovine serum (RPMI+ds) (AID 1963877); further: nearly all actives have a fitted effect of over 30% in size
In short: as §1

[3] = Quantitative highthroughput screen to assess conditional lethalithy of NOMO1 cells grown in Human Plasma-Like Medium with dialyzed fetal bovine serum (HPLM+ds) (AID 1963878); conditions: NOMO1 AML cells in HPLM+ds, CellTiter-Glo viability, 48 h; viability: at 45.8 µM (top of the series); further: nearly all actives have a fitted effect of over 35% in size
In short: as §1

[4] = Quantitative highthroughput screen to assess conditional lethalithy of P12 Ichikawa cells grown in RPMI1640 with dialyzed fetal bovine serum (RPMI+ds) (AID 1963880); conditions: Potency: P12-Ichikawa viability; further: nearly all actives have a fitted effect of over 35% in size
In short: as §1

[5] = Quantitative highthroughput screen to assess conditional lethalithy of P12 Ichikawa cells grown in RPMI1640 with untreated serum (RPMI+s) (AID 1963881); conditions: Potency: viability; further: nearly all actives have a fitted effect of over 35% in size
In short: as §1

[6] = Quantitative highthroughput screen to assess conditional lethalithy of SEM cells grown in Human Plasma-Like Medium with dialyzed fetal bovine serum (HPLM+ds) (AID 1963882); further: nearly all actives have a fitted effect of over 35% in size
In short: as §1

[7] = Quantitative highthroughput screen to assess conditional lethalithy of SEM cells grown in RPMI1640 with unreated serum (RPMI+s) (AID 1963883); conditions: SEM B-ALL cells, CellTiter-Glo viability, 48 h; viability: at 45.8 µM (top of the series); further: nearly all actives have a fitted effect of over 35% in size
In short: as §1

[8] = Quantitative highthroughput screen to assess conditional lethalithy of SEM cells grown in RPMI1640 with dialyzed fetal bovine serum (RPMI+ds) (AID 1963884); conditions: SEM B-ALL cells, RPMI+dialyzed FBS, CellTiter-Glo viability, 48 h; viability: at 45.8 µM (top of the series); further: nearly all actives have a fitted effect of over 35% in size
In short: as §1

Measured: Potency
Potency means the concentration at half of the fitted maximal effect.

COc1cc2c(cc1O)CCC1C2CC[C@@]2(C)C1CC[C@@H]2O (stereo not given in full)
inconclusive: [1] 6.62 µM [cytotoxic, full curve] | [2] 4.18 µM [cytotoxic, full curve] | [3] 2.64 µM [cytotoxic, full curve] | [4] 2.96 µM [cytotoxic, full curve] | [6] 2.09 µM [cytotoxic, full curve, poor fit] | [7] 2.64 µM [cytotoxic, full curve, poor fit] | [8] 2.35 µM [cytotoxic, full curve, poor fit]
active: [5] 2.64 µM

CNC(=O)c1cccc(-c2ccc3c(N4CCOC[C@H]4C)nc(N4CCOC[C@H]4C)nc3n2)c1
inconclusive: [1] 8.33 µM [cytotoxic, partial curve] | [2] 0.148 µM [cytotoxic, full curve] | [3] 0.0332 µM [cytotoxic, full curve] | [4] 0.0526 µM [cytotoxic, full curve] | [5] 0.0235 µM [cytotoxic, full curve]

CCC(=C(c1ccc(O)cc1)c1ccc(OCCNC)cc1)c1ccccc1
active: [6] 13.2 µM
inconclusive: [1] 26.4 µM [cytotoxic, single point] | [2] 18.7 µM [cytotoxic, partial curve] | [3] 16.6 µM [cytotoxic, partial curve] | [4] 3.32 µM [cytotoxic, full curve] | [5] 4.69 µM [cytotoxic, full curve] | [8] 5.9 µM [cytotoxic, full curve, poor fit]
